Values from PubChem BioAssay AID504793 (Drosophila RNAi Screening Center, 2011).
Aim: 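Genes required for cells to halt at G2/M after double-strand DNA breaks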 (primary screen). Cell system: Drosophila S2R+ cells. Reagent: long dsRNA against Drosophila genes, about 0.25 µg dsRNA per well. Timing: 4 days of dsRNA, then 4 hours of drug before read-out. Treatment: doxorubicin 0.5 µM for 4 hours to cause double-strand breaks, in cells also given a low, harmless dose of dsRNA against nbs to sensitise the assay. Detection: 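Per-well count of mitotic cells stained for phospho-histone H3 after doxorubicin exposure, used as mitotic index; counts are raw and not normalised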. Reading the numbers: mitotic cells: higher = more cells in mitosis, weaker G2 arrest. Hit rule: 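Genes are called active only when high mitotic counts were reproduced with independent dsRNAs and mitosis was checked for delay without damage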. Meaning of the calls: active = confirmed in follow-up tests; inactive = not confirmed.
In all, the deposit lists about 23,000 reagents; shown is a random part of those with a known target gene and a result. In the full data, 62 (0.27%) were called active. 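Calls come from follow-up tests whose scores are not deposited, so confirmed genes may have low counts here; counts are not normalised per plate.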 Raw values are not corrected between plates. Reagents against one gene are numbered here. A plus sign joins genes that one reagent is predicted to hit.

no.	gene knocked down	reagent no.	mitotic cells, replicate 1	mitotic cells, replicate 2	outcome
1	CG12520	1	10		inactive
2	pbl	1	8		inactive
3	pbl	2	6		inactive
4	CG3558	1	6		inactive
5	CG3558	2	6		inactive
6	Rab18	1	5		inactive
7	Rab18	2	8		inactive
8	SdhA	1	9		inactive
9	CG8997	1	6		inactive
10	CG8997	2	11		inactive
11	hyd	1	3		inactive
12	hyd	2			inactive
13	Cyp9h1	1	5		inactive
14	Cyp9h1	2	2		inactive
15	CG9164	1	26		inactive
16	CG9164	2	7		inactive
17	CG9164	3	10		inactive
18	Cbp20	1	14		inactive
19	smog	1	7		inactive
20	smog	2	15		inactive
21	smog	3	7		inactive
22	CG13699	1	4		inactive
23	CG13699	2	8		inactive
24	CG10864	1	9		inactive
25	sona	1	3		inactive
26	sona	2	5		inactive
27	sona	3	5		inactive
28	CG2962	1	9		inactive
29	CG2962	2	5		inactive
30	RpL7	1	5		inactive
31	RpL7	2	7		inactive
32	yip2	1	6		inactive
33	CheB53b	1	8		inactive
34	CheB53b	2	5		inactive
35	CG9068	1	7		inactive
36	GstE9	1	8		inactive
37	GstE9	2	9		inactive
38	CG17929	1	7		inactive
39	rogdi	1	7		inactive
40	lky	1	5		inactive
41	lky	2	3		inactive
42	Rbcn-3A	1	18		inactive
43	Rbcn-3A	2	11		inactive
44	CG4972	1	6		inactive
45	Tomosyn	1	7		inactive
46	Tomosyn	2	5		inactive
47	Tomosyn	3	10		inactive
48	Tomosyn	4	11	6	inactive
49	Tomosyn	5	19		inactive
50	CG5493 + CG5327	1	6		inactive
51	CG13810	1	5		inactive
52	CG13810	2	6		inactive
53	CG13810	3	3		inactive
54	woc	1	7		inactive
55	CG4119	1	10		inactive
56	CG4119	2	16		inactive
57	CG16904	1	1		inactive
58	CG16904	2	12		inactive
59	asRNA:Eig63F-2 + Eip63F-1	1	9		inactive
60	CG14645	1	3		inactive
61	CR9337	1	8		inactive
62	CR9337	2	27		inactive
63	Bfc	1	9		inactive
64	Irk2	1	4		inactive
65	CG3253	1	11		inactive
66	CG3253	2	5		inactive
67	sqh	1	5		inactive
68	sqh	2	4		inactive
69	ath	1	7		inactive
70	CG4520	1	2		inactive
71	CG4520	2	10		inactive
72	CG9782	1	26		inactive
73	CG9782	2	7		inactive
74	CG9782	3	9		inactive
75	CG2921	1	9		inactive
76	CG2921	2	4		inactive
77	CG32563	1	8		inactive
78	CG32563	2	8		inactive
79	pont	1	40		active
80	CG7943	1	5		inactive
81	Prp16	1	4		inactive
82	Prp16	2	7		inactive
83	CG5984	1	17		inactive
84	CG32548	1	9		inactive
85	CG32548	2	11		inactive
86	CG32548	3	3		inactive
87	tamo	1	6		inactive
88	tamo	2	5		inactive
89	CG15130	1	7		inactive
90	Klp61F	1	147		inactive
91	Klp61F	2	87		inactive
92	CG8281	1	2		inactive
93	Adgf-A	1	10		inactive
94	Adgf-A	2	6		inactive
95	Orai	1	4		inactive
96	eIF2Bepsilon	1	11		inactive
97	Pp1-Y2	1	9		inactive
98	NaPi-III	1	5		inactive
99	NaPi-III	2	23		inactive
100	NaPi-III	3	12		inactive
101	NaPi-III	4	1		inactive
102	mRpS23	1	5		inactive
103	CG32069 + Blos2	1	1		inactive
104	Bro	1	7		inactive
105	Gk1	1	2		inactive
106	Gk1	2	5		inactive
107	CG6059	1	9		inactive
108	Pgant9	1	19		inactive
109	Pgant9	2	4		inactive
110	Pgant9	3	7		inactive
111	Pgant9	4	7		inactive
112	Pgant9	5	9		inactive
113	Pgant9	6	5		inactive
114	CG33630	1	3		inactive
115	SERCA	1	2		inactive
116	SERCA	2	4		inactive
117	sav	1	6		inactive
118	sav	2	1		inactive
119	TfIIEbeta	1	9		inactive
120	CG17726	1	15		inactive
121	fmt	1	23		inactive
122	He	1	9		inactive
123	CTCF	1	10		inactive
124	CTCF	2	7		inactive
125	CG30091	1	12		inactive
126	CG30091	2	7		inactive
127	eIF2alpha	1	3		inactive
128	CG4627	1	6		inactive
129	Uggt	1	3		inactive
130	lin-28	1	5		inactive
131	Hr51	1	3		inactive
132	Hr51	2	16		inactive
133	Hcf	1	8		inactive
134	CG12951	1	6		inactive
135	CG12951	2	9		inactive
136	Socs36E	1	6	12	inactive
137	Socs36E	2	8		inactive
138	nesd	1	6		inactive
139	nesd	2	2		inactive
140	CG12818	1	1		inactive

Part of the list above, limited to “mitotic cells, replicate 1”.
sqh #1 = 5
sqh #2 = 4
ath = 7
CG4520 #1 = 2
CG4520 #2 = 10
CG9782 #1 = 26
CG9782 #2 = 7
CG9782 #3 = 9
